From publication PMC12052760
Results are given in words; binding and its absence hold for the method and conditions named. In cells and extracts the contact can be indirect. Some results given as binding are weak or reduced against the parent protein; the word gives no strength.

By UniProt entry, the sequences of proteins in these tests, tags left out.
UniProt Q86WV6: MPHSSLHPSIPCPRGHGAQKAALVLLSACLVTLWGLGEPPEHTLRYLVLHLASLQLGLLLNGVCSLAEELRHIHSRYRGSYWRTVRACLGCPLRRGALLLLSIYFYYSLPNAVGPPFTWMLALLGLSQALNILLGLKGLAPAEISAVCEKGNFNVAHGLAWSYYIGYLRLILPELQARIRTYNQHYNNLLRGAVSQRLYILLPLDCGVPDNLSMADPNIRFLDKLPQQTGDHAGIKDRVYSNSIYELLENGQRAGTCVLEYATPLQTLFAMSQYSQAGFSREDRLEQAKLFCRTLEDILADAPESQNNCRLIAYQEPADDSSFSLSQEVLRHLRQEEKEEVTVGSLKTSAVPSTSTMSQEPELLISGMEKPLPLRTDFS
UniProt Q7Z434: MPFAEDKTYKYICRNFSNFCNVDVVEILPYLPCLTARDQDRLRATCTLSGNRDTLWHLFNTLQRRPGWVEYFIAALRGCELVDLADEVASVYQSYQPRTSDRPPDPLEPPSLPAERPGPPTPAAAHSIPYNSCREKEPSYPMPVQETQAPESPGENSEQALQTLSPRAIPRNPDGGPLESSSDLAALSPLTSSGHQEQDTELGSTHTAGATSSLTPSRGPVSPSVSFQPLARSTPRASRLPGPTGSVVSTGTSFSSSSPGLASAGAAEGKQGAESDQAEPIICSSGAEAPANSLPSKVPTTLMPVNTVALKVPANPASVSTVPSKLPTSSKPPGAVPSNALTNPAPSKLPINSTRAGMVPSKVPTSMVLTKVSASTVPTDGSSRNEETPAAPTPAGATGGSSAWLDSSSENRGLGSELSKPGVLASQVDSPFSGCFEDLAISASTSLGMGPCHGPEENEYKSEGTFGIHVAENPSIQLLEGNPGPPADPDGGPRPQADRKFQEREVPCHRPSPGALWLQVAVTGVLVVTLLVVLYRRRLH
UniProt Q8IUC6: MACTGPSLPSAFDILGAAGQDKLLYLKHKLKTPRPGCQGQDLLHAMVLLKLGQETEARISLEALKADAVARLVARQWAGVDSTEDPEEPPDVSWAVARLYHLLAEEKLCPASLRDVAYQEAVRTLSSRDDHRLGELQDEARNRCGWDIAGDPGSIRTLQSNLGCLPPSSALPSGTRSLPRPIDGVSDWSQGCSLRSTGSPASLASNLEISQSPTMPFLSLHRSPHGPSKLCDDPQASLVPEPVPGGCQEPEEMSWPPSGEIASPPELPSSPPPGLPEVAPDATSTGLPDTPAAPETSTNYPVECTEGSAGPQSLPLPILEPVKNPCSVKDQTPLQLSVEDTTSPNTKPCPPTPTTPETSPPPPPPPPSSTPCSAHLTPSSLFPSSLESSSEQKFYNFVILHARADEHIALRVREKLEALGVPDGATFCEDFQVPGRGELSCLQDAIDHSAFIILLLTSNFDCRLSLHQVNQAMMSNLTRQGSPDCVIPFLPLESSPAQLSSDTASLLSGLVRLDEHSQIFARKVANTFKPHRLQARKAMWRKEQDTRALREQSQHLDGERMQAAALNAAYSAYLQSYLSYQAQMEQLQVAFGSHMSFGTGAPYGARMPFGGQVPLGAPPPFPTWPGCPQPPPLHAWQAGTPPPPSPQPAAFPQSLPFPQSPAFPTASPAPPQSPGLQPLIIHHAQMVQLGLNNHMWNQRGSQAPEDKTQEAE

Experiments:
Assay in all cases: co-IP
IKKϵ = biological target: T1, IKKϵ (UniProt Q14164)
T1 sequence: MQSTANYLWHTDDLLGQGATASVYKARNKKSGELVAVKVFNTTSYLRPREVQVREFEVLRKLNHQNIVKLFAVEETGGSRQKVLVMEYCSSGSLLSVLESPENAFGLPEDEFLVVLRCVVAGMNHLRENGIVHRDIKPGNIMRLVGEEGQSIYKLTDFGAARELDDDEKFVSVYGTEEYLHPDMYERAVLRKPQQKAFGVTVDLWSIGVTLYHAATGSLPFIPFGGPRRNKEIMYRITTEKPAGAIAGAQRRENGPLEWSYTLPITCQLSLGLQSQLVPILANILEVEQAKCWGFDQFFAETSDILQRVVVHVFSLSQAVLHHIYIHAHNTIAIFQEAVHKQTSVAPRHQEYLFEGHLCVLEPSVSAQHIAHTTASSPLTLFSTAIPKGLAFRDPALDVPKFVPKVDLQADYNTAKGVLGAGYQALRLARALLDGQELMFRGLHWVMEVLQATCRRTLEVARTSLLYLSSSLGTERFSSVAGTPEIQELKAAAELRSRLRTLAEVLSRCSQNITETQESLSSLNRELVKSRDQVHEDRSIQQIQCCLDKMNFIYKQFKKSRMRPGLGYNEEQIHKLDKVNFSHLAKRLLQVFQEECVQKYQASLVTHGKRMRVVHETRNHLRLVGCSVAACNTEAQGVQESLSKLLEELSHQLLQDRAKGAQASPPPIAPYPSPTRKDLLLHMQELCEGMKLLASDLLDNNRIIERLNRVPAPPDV

MDA5 = biological target: T2, MDA5 (UniProt Q9BYX4)
T2 sequence: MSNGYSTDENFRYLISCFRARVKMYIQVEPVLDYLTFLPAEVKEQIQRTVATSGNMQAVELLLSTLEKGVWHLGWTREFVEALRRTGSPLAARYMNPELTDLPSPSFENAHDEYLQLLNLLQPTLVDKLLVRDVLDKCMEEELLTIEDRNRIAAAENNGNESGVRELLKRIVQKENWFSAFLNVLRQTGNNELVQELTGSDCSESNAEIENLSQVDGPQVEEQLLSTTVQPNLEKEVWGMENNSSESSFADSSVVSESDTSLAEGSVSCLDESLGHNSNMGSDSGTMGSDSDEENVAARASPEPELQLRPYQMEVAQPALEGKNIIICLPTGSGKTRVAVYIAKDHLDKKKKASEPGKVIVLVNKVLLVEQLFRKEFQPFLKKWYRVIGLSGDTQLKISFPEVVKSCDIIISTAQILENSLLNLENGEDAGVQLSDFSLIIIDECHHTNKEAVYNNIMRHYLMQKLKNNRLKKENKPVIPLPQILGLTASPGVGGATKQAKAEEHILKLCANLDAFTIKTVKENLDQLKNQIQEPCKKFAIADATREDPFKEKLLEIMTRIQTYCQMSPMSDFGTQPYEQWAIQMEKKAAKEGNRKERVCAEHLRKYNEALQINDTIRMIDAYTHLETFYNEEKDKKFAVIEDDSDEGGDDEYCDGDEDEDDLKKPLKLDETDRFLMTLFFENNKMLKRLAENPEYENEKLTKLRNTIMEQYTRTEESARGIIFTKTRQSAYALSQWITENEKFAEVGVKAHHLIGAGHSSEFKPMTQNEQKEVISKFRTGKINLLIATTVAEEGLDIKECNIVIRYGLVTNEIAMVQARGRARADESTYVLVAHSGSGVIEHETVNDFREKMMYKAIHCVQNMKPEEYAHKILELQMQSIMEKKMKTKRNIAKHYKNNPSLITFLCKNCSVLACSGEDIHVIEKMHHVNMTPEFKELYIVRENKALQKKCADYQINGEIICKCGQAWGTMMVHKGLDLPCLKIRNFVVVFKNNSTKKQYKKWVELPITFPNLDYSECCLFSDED

RIG-I = biological target: T3, RIG-I (UniProt O95786)
T3 sequence: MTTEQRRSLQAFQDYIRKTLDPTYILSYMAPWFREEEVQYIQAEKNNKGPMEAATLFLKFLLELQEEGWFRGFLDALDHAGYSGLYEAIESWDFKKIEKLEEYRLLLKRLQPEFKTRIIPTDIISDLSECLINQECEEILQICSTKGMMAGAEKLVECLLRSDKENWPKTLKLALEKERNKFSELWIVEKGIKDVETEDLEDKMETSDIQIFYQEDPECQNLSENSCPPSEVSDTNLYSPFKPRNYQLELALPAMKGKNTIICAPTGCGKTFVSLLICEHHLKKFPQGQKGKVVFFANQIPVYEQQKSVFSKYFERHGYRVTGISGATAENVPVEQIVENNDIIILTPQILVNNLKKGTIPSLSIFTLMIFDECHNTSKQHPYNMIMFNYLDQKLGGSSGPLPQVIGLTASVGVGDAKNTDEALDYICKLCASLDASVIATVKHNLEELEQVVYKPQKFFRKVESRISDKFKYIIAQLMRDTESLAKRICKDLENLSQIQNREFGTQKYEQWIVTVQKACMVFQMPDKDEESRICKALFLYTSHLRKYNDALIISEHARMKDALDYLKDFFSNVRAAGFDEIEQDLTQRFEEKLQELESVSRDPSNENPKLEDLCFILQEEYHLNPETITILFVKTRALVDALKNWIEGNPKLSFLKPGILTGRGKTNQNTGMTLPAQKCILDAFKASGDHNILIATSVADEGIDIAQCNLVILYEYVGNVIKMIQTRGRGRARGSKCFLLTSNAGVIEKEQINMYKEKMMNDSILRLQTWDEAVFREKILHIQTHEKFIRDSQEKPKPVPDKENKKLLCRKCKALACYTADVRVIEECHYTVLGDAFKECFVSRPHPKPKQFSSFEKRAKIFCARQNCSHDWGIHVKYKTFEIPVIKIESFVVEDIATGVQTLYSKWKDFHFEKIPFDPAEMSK

[1] = biological target: stimulator of interferon genes (STING) (UniProt Q86WV6)
[2] = biological target: mitochondrial antiviral signaling protein (MAVS) (UniProt Q7Z434)
[3] = biological target: T4, TANK-binding kinase 1 (TBK1) (UniProt Q9UHD2)
T4 sequence: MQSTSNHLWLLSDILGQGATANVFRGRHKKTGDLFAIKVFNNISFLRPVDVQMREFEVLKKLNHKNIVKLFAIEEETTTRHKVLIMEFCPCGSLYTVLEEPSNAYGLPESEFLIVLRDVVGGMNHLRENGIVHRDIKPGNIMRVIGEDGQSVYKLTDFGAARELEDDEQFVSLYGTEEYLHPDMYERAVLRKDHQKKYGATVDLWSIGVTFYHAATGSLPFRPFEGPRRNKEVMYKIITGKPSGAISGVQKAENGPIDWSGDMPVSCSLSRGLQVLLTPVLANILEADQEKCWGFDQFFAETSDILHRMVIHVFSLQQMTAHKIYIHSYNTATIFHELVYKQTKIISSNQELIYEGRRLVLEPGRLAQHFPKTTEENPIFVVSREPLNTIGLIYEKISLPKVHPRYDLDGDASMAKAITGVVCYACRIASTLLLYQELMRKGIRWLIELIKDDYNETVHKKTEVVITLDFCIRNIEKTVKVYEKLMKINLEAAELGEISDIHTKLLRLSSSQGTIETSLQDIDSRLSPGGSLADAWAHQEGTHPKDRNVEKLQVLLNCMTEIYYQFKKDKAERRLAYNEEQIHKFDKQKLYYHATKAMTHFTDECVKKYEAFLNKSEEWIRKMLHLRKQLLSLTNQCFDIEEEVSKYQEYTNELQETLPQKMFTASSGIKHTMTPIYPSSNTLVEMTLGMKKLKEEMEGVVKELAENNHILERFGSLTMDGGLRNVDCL

TRIF = TRIF (UniProt Q8IUC6)
STAT1 = STAT1 (UniProt P42224)
STAT2, P52630 = conditions: remark: other sources report otherwise
STAT1, P42224 = biological target: T5, STAT1, P42224; conditions: remark: other sources report otherwise
T5 chain: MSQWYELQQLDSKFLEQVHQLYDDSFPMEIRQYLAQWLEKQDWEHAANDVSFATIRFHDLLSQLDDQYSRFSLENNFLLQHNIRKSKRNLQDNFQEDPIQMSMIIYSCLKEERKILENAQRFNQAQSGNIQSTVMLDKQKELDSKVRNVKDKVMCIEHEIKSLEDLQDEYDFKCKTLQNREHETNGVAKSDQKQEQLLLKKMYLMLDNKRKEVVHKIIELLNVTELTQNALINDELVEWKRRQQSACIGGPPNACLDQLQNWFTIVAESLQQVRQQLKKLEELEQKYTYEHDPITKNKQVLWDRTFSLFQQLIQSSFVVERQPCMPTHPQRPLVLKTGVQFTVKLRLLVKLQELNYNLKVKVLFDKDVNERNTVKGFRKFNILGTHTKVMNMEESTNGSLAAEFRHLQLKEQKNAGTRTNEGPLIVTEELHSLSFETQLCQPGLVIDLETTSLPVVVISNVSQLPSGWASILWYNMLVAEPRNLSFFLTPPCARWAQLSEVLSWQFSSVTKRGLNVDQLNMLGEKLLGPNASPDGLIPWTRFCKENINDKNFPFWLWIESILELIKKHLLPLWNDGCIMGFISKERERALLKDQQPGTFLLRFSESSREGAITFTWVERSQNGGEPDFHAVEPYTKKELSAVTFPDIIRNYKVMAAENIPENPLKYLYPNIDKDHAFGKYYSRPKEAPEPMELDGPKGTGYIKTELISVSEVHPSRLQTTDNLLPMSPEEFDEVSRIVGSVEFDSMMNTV

Measured: binding

B1: HPV16 E1 (protein, UniProt P03114 1-649)
chain: MADPAGTNGEEGTGCNGWFYVEAVVEKKTGDAISDDENENDSDTGEDLVDFIVNDNDYLTQAETETAHALFTAQEAKQHRDAVQVLKRKYLVSPLSDISGCVDNNISPRLKAICIEKQSRAAKRRLFESEDSGYGNTEVETQQMLQVEGRHETETPCSQYSGGSGGGCSQYSSGSGGEGVSERHTICQTPLTNILNVLKTSNAKAAMLAKFKELYGVSFSELVRPFKSNKSTCCDWCIAAFGLTPSIADSIKTLLQQYCLYLHIQSLACSWGMVVLLLVRYKCGKNRETIEKLLSKLLCVSPMCMMIEPPKLRSTAAALYWYKTGISNISEVYGDTPEWIQRQTVLQHSFNDCTFELSQMVQWAYDNDIVDDSEIAYKYAQLADTNSNASAFLKSNSQAKIVKDCATMCRHYKRAEKKQMSMSQWIKYRCDRVDDGGDWKQIVMFLRYQGVEFMSFLTALKRFLQGIPKKNCILLYGAANTGKSLFGMSLMKFLQGSVICFVNSKSHFWLQPLADAKIGMLDDATVPCWNYIDDNLRNALDGNLVSMDVKHRPLVQLKCPPLLITSNINAGTDSRWPYLHNRLVVFTFPNEFPFDENGNPVYELNDKNWKSFFSRTWSRLSLHEDEDKENDGDSLPTFKCVSGQNTNTL
not listed: STAT2, P52630 | STAT1, P42224
binds: all other assays above

B2: IRF9, Q00978 1-393 (protein)
chain: MASGRARCTRKLRNWVVEQVESGQFPGVCWDDTAKTMFRIPWKHAGKQDFREDQDAAFFKAWAIFKGKYKEGDTGGPAVWKTRLRCALNKSSEFKEVPERGRMDVAEPYKVYQLLPPGIVSGQPGTQKVPSKRQHSSVSSERKEEEDAMQNCTLSPSVLQDSLNNEEEGASGGAVHSDIGSSSSSSSPEPQEVTDTTEAPFQGDQRSLEFLLPPEPDYSLLLTFIYNGRVVGEAQVQSLDCRLVAEPSGSESSMEQVLFPKPGPLEPTQRLLSQLERGILVASNPRGLFVQRLCPIPISWNAPQAPPGPGPHLLPSNECVELFRTAYFCRDLVRYFQGLGPPPKFQVTLNFWEESHGSSHTPQNLITVKMEQAFARYLLEQTPEQQAAILSLV
binds: STAT2, P52630 | STAT1, P42224

B3: HPV11 E1 (protein, UniProt P04014 1-649)
chain: MADDSGTENEGSGCTGWFMVEAIVEHTTGTQISEDEEEEVEDSGYDMVDFIDDRHITQNSVEAQALFNRQEADAHYATVQDLKRKYLGSPYVSPISNVANAVESEISPRLDAIKLTTQPKKVKRRLFETRELTDSGYGYSEVEAATQVEKHGDPENGGDGQERDTGRDIEGEGVEHREAEAVDDSTREHADTSGILELLKCKDIRSTLHGKFKDCFGLSFVDLIRPFKSDRTTCADWVVAGFGIHHSIADAFQKLIEPLSLYAHIQWLTNAWGMVLLVLIRFKVNKSRCTVARTLGTLLNIPENHMLIEPPKIQSGVRALYWFRTGISNASTVIGEAPEWITRQTVIEHSLADSQFKLTEMVQWAYDNDICEESEIAFEYAQRGDFDSNARAFLNSNMQAKYVKDCAIMCRHYKHAEMKKMSIKQWIKYRGTKVDSVGNWKPIVQFLRHQNIEFIPFLSKLKLWLHGTPKKNCIAIVGPPDTGKSCFCMSLIKFLGGTVISYVNSCSHFWLQPLTDAKVALLDDATQPCWTYMDTYMRNLLDGNPMSIDRKHRALTLIKCPPLLVTSNIDISKEEKYKYLHSRVTTFTFPNPFPFDRNGNAVYELSDANWKCFFERLSSSLDIEDSEDEEDGSNSQAFRCVPGSVVRTL
not listed: STAT2, P52630 | STAT1, P42224
binds: all other assays above
